Laboratory results reported in the supplement of paper PMC10849652.
The list shows a part of the results.

Chains of the proteins cited; added tags and fusions are not shown. Lines headed by an entry give the natural chain unless they say otherwise; changes in a name come on top.
UniProt Q8WVC6: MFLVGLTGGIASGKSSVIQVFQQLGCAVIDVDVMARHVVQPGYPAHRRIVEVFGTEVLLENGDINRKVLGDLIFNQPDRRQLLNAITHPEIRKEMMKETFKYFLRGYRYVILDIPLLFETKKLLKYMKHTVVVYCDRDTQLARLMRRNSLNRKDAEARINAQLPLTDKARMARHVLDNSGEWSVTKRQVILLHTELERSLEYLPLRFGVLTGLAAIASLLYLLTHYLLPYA
UniProt Q9NXF7, whole entry, looked up: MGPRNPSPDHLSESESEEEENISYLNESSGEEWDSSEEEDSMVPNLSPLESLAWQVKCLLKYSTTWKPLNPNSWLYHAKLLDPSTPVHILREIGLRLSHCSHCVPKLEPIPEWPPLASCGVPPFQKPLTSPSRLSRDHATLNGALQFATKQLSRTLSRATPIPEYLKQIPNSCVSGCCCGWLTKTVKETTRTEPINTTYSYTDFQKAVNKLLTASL
UniProt P0CG12: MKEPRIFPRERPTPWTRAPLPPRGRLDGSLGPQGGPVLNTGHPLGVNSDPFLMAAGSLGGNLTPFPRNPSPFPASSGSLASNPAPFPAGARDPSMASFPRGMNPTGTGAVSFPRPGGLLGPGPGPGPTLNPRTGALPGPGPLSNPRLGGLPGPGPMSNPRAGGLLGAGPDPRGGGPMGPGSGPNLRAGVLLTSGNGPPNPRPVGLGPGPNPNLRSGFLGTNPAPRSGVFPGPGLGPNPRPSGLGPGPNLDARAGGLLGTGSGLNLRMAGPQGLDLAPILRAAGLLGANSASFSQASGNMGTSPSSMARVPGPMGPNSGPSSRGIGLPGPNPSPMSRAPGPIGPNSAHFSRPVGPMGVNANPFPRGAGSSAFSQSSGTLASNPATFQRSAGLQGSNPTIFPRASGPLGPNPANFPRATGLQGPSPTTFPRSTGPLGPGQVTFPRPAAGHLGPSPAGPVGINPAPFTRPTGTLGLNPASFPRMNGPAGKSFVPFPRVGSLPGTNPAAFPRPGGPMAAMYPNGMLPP
UniProt Q8IV53: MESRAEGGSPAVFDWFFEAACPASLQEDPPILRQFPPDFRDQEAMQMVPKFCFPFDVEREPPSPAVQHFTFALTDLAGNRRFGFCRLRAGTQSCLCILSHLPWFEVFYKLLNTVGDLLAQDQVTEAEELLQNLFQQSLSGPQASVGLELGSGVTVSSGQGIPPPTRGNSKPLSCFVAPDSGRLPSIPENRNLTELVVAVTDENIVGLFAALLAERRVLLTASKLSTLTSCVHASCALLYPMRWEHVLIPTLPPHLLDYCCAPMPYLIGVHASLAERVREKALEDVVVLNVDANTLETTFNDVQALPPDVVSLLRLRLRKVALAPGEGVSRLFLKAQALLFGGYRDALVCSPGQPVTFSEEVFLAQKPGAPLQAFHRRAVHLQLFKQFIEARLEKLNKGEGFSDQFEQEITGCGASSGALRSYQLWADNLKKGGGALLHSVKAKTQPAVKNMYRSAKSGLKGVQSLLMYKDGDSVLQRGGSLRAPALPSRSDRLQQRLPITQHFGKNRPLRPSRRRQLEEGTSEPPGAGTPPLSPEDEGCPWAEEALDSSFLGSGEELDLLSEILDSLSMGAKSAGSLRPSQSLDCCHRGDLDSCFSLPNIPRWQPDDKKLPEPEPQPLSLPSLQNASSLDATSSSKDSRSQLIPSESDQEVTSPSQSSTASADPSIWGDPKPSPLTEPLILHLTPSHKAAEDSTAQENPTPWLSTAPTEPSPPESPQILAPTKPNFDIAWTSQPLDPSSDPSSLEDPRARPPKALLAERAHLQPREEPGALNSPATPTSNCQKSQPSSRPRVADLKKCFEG
UniProt Q9UHI6: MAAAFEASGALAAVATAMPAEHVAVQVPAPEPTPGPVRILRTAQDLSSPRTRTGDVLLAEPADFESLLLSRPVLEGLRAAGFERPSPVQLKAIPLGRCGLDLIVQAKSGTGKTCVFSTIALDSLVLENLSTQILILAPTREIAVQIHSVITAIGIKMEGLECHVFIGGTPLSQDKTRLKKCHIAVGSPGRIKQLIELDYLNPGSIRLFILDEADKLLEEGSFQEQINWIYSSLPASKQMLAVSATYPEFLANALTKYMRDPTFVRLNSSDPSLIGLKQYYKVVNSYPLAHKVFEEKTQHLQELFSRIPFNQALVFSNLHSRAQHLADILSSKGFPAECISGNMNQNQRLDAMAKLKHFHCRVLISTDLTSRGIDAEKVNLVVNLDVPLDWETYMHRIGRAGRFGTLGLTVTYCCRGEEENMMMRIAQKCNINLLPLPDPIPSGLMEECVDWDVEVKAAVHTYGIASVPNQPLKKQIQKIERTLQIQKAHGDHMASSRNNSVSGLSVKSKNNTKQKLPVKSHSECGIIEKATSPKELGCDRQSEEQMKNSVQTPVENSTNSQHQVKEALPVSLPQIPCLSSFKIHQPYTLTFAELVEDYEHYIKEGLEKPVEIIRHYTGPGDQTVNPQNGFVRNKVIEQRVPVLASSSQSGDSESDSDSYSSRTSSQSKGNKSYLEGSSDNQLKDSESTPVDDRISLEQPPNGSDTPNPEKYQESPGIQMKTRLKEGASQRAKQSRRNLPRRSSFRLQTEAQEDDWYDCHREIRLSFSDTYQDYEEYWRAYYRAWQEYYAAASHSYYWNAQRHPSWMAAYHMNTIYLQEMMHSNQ
UniProt Q9UJW0, whole entry, looked up: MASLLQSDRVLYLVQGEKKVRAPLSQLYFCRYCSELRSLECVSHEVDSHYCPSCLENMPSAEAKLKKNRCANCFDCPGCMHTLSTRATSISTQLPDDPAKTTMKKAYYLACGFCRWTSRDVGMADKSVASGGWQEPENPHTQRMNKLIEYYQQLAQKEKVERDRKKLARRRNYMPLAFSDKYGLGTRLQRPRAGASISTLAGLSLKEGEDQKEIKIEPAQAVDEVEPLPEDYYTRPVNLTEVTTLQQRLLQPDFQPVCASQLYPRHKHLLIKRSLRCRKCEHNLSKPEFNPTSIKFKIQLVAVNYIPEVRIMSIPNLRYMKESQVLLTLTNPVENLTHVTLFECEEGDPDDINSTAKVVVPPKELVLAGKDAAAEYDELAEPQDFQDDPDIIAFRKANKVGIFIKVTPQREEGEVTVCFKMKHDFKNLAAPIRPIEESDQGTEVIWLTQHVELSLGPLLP
UniProt O43293: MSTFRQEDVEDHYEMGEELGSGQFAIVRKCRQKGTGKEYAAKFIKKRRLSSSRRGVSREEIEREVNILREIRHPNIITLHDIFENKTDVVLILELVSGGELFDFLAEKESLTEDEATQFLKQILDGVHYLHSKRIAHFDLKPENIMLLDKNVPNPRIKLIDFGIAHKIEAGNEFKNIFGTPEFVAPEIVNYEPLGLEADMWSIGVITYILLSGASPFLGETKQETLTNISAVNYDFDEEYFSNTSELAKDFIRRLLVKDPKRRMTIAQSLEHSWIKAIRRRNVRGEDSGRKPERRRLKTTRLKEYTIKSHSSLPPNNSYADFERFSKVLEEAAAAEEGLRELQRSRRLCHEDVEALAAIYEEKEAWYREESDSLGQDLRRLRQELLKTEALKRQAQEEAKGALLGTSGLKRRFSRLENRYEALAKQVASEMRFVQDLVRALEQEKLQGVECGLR
UniProt Q9Y6V7: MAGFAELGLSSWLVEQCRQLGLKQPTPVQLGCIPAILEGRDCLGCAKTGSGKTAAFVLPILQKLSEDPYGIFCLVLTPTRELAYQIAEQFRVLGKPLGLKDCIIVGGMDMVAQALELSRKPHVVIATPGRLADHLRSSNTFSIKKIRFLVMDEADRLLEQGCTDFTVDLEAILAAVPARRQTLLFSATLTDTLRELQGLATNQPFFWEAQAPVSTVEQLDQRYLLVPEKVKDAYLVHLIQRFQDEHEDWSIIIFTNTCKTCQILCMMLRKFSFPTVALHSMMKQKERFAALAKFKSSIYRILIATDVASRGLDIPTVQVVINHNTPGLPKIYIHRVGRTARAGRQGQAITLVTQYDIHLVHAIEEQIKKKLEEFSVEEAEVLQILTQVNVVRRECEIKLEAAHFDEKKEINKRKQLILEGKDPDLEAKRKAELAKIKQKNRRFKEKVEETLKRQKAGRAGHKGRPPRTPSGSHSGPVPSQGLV
UniProt Q8TEH3: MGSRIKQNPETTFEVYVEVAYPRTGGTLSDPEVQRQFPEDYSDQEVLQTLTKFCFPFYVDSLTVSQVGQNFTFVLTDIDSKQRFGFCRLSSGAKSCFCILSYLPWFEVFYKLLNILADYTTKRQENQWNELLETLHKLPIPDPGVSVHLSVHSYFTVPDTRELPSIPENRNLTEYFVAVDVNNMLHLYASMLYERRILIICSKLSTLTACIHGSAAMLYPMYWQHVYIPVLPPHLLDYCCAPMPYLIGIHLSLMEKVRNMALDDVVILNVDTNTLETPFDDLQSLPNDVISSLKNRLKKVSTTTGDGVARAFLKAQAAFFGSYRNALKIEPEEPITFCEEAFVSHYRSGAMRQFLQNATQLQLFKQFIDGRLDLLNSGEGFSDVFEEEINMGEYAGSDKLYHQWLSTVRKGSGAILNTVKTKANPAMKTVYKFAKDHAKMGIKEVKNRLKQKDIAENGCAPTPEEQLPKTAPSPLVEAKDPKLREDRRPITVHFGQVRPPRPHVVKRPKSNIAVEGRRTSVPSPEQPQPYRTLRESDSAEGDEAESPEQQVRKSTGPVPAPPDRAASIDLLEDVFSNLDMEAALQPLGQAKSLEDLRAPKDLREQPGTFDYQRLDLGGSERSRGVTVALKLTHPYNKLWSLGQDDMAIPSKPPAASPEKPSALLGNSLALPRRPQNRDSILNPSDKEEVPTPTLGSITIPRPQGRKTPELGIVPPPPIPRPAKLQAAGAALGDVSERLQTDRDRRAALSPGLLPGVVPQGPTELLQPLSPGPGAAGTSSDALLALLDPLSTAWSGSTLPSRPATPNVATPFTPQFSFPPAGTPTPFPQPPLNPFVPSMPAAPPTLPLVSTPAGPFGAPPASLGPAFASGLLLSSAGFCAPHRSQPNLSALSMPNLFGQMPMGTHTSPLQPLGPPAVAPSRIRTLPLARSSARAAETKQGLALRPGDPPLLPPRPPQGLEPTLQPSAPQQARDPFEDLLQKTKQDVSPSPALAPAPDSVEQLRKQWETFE
UniProt O43583: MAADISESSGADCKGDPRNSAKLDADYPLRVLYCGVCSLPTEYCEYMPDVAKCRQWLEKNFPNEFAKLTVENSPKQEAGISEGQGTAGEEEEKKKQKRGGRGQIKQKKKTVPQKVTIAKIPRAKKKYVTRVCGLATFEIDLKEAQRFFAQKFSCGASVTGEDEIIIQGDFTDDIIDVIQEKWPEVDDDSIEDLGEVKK
UniProt Q86XP3: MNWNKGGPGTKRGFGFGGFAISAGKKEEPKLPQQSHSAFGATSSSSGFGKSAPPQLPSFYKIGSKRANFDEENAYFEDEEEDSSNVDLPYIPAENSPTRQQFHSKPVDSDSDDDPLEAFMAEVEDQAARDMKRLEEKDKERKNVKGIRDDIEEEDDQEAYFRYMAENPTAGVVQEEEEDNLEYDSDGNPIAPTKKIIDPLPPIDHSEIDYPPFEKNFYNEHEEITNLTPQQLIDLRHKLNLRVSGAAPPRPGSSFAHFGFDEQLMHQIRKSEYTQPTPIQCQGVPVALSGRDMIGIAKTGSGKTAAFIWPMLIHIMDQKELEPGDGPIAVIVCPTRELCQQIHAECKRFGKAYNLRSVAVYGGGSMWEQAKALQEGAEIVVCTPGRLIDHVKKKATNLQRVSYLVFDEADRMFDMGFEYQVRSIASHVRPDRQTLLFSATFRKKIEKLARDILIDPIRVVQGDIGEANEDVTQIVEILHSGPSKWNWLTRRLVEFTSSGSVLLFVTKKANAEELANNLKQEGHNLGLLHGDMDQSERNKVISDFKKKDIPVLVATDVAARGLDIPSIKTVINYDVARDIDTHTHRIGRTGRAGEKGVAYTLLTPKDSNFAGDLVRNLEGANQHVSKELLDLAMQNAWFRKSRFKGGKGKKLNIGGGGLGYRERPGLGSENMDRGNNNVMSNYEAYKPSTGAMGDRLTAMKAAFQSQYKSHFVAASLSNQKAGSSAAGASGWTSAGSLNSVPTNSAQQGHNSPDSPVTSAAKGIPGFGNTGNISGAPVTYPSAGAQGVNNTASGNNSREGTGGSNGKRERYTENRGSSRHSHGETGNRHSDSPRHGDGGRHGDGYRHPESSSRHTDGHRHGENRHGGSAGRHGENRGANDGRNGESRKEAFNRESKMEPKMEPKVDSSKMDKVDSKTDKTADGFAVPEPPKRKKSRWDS
UniProt Q16698: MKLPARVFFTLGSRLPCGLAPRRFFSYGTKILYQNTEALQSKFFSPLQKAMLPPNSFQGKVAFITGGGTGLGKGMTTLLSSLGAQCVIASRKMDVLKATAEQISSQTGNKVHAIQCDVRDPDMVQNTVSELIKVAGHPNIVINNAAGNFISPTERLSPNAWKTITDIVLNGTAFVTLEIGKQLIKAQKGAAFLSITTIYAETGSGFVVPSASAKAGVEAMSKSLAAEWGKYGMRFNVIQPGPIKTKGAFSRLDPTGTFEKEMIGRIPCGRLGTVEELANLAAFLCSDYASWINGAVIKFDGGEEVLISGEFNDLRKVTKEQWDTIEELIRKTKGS
UniProt Q9H1C7: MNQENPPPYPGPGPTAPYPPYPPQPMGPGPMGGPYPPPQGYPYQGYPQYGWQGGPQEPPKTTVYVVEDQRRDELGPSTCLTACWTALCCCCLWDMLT

Assays:
Experiment in all cases: log2 fold change, soluble protein after heating vs DMSO (PISA); higher = thermal stabilisation; K562 lysate, 10 uM; active = over 0.2 and 3.5 SD of the protein, either way, in both replicates (recomputed)
[1] = compound: NCC(=O)Nc1ccc(-n2nc(C(F)(F)F)cc2-c2ccc3c(ccc4ccccc43)c2)cc1
Method in brief: (§1)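 To prepare the extract, K562 pellets were dounce-homogenised in PBS pH 7.4 with 1 mM MgCl2, giving crude material at 1 mg/mL protein. This was treated with 10 μM compound for 30 min, then heated in aliquots for 3 min over 48°C-58°C before pooling and addition of NP-40 to 0.5% at 4°C. Centrifugation at 21,000xg for 90 min left soluble protein in the supernatant, which TMTpro 16plex LC-MS/MS quantified with equalised channel sums. Results are log-two fold changes in thermal stability compared with solvent controls, from duplicates.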

vorinostat = compound: O=C(CCCCCCC(=O)Nc1ccccc1)NO [vorinostat]
Method in brief: as §1

silmitasertib = compound: O=C(O)c1ccc2c(c1)nc(Nc1cccc(Cl)c1)c1ccncc12 [silmitasertib]
Method in brief: as §1

[2] = compound: O=C1NC(=O)C(c2cnc3ccccn23)=C1c1cn2c3c(cc(F)cc13)CN(C(=O)N1CCCCC1)CC2
Method in brief: as §1

entospletinib = compound: c1cn2cc(-c3ccc4cn[nH]c4c3)nc(Nc3ccc(N4CCOCC4)cc3)c2n1 [entospletinib]
Method in brief: as §1

Measured: log2 fold change

DDX24 (UniProt Q9GZR7)
inactive: [1] 0.015 | vorinostat 0.068 | silmitasertib -0.016 | [2] 0.02 | entospletinib 0.018

DDX11 (UniProt Q96FC9)
inactive: [1] -0.036 | vorinostat -0.308 | silmitasertib 0.033 | [2] -0.028

DAD1 (UniProt P61803)
inactive: [1] 0.05 | vorinostat 0 | silmitasertib 0.028 | [2] 0.024 | entospletinib 0.093

DEPDC5 (UniProt O75140)
inactive: [1] 0.049 | vorinostat -0.037 | silmitasertib 0.009

DDX39B isoform 2 (UniProt Q13838)
inactive: [1] 0.004 | vorinostat 0.053 | silmitasertib 0.021 | [2] -0.02 | entospletinib -0.004

DCAF11 (UniProt Q8TEB1)
inactive: [1] -0.006 | vorinostat 0.043 | silmitasertib -0.024 | [2] 0.005 | entospletinib 0.008

DDX1 (UniProt Q92499)
inactive: [1] -0.017 | vorinostat -0.092 | silmitasertib 0.008 | [2] 0 | entospletinib -0.01

DAB2 (UniProt P98082)
inactive: [1] 0.029 | vorinostat -0.047 | silmitasertib -0.024 | [2] 0.005 | entospletinib -0.069

DENND1B (UniProt Q6P3S1)
inactive: [1] -0.063 | silmitasertib 0.28 | [2] -0.076
active: vorinostat -1.3

DCAKD (UniProt Q8WVC6)
inactive: [1] 0.003

DDX3X (UniProt O00571)
inactive: [1] 0.047 | vorinostat -0.2 | silmitasertib 0.092 | [2] 0 | entospletinib -0.023

DCAF12 (UniProt Q5T6F0)
inactive: [1] 0.006 | vorinostat -0.067 | silmitasertib -0.02 | [2] 0.072 | entospletinib -0.144

DCAF16 (UniProt Q9NXF7)
inactive: [1] -0.011 | vorinostat -0.003 | silmitasertib -0.047 | [2] -0.017 | entospletinib 0.049

DCAF1 (UniProt Q9Y4B6)
inactive: [1] 0.005 | vorinostat -0.092 | silmitasertib -0.012 | [2] -0.008 | entospletinib 0.005

DAP3 (UniProt P51398)
inactive: [1] -0.022 | vorinostat -0.083 | silmitasertib 0.012 | [2] 0.071 | entospletinib 0.003

DERPC (UniProt P0CG12)
inactive: [1] -0.045 | vorinostat 0.213 | silmitasertib -0.061 | [2] 0 | entospletinib -0.019

DDX17 (UniProt Q92841)
inactive: [1] 0.025 | vorinostat -0.215 | silmitasertib 0.029 | [2] -0.022 | entospletinib 0.042

DENND4A isoform 2 (UniProt Q7Z401)
inactive: [1] 0.046 | silmitasertib 0.043 | [2] -0.02 | entospletinib -0.013
active: vorinostat -0.379

DENND1C (UniProt Q8IV53)
inactive: [1] 0.086 | vorinostat -0.022 | silmitasertib -0.023 | [2] 0.2

DCUN1D5 (UniProt Q9BTE7)
inactive: [1] 0.003 | vorinostat -0.18 | silmitasertib 0.084 | [2] -0.015 | entospletinib 0.06

DAPK1 isoform 3 (UniProt P53355)
active: silmitasertib 0.833
inactive: [1] 0.09 | vorinostat -0.477 | [2] 0.004

DCTN2 (UniProt Q13561)
inactive: [1] -0.008 | vorinostat 0.255 | silmitasertib -0.082 | [2] 0.1 | entospletinib 0.017

DERA (UniProt Q9Y315)
inactive: [1] -0.015 | vorinostat 0.063 | silmitasertib -0.003 | [2] 0.018 | entospletinib 0

DCAF6 isoform 3 (UniProt Q58WW2)
inactive: [1] -0.054 | vorinostat 0.043 | silmitasertib 0.047 | [2] -0.021 | entospletinib -0.002

DDX20 (UniProt Q9UHI6)
inactive: [1] 0.007 | silmitasertib 0.069 | [2] 0.022 | entospletinib -0.008
active: vorinostat -0.348

DCTD isoform 2 (UniProt P32321)
inactive: [1] -0.024 | vorinostat 0.014 | silmitasertib -0.025 | [2] -0.013 | entospletinib -0.008

DCTN4 (UniProt Q9UJW0)
inactive: [1] -0.008 | vorinostat 0.04 | silmitasertib -0.006 | [2] -0.002 | entospletinib -0.007

DFFA isoform 2 (UniProt O00273)
inactive: [1] 0.095 | vorinostat 0.212 | silmitasertib -0.061 | [2] -0.025

DAPK3 (UniProt O43293)
inactive: [1] 0.575

DDX5 (UniProt P17844)
inactive: [1] -0.007 | vorinostat -0.187 | silmitasertib 0.023 | [2] -0.119 | entospletinib 0.027

DDX23 (UniProt Q9BUQ8)
inactive: [1] -0.012 | vorinostat -0.142 | silmitasertib 0.037 | [2] -0.006 | entospletinib 0.033

DDX50 (UniProt Q9BQ39)
inactive: [1] 0.131 | vorinostat -0.034 | silmitasertib 0.018 | [2] 0.055 | entospletinib -0.015

DES (UniProt P17661)
inactive: [1] 0.108 | vorinostat 0.097 | silmitasertib 0.03 | [2] 0.05 | entospletinib 0.027

DCP1A (UniProt Q9NPI6)
inactive: [1] -0.03 | silmitasertib 0.022 | [2] 0.011 | entospletinib 0.027
active: vorinostat -0.234

DAPK2 isoform 2 (UniProt Q9UIK4)
inactive: [1] 0.285 | vorinostat -0.185 | silmitasertib 0.464

DDX49 (UniProt Q9Y6V7)
inactive: [1] -0.005 | vorinostat -0.04 | silmitasertib 0.005 | [2] -0.006 | entospletinib 0.01

DAAM1 (UniProt Q9Y4D1)
inactive: [1] 0.024 | vorinostat 0.072 | silmitasertib 0.011 | [2] 0.118

D2HGDH (UniProt Q8N465)
inactive: [1] 0.026 | vorinostat 0.214 | silmitasertib -0.027 | [2] -0.016 | entospletinib 0.011

DCP2 (UniProt Q8IU60)
inactive: [1] -0.02 | silmitasertib -0.033 | [2] 0.085 | entospletinib -0.001
active: vorinostat -0.446

DDX41 (UniProt Q9UJV9)
inactive: [1] 0.034 | vorinostat -0.098 | silmitasertib -0.001 | [2] 0.022 | entospletinib -0.04

DCAF10 (UniProt Q5QP82)
inactive: [1] -0.027 | vorinostat 0.012 | silmitasertib 0 | [2] -0.071 | entospletinib -0.002

DENND1A isoform 6 (UniProt Q8TEH3)
inactive: [1] -0.321 | vorinostat -0.491 | silmitasertib 0.031 | [2] -0.094 | entospletinib -0.052

DENND4C (UniProt Q5VZ89)
inactive: [1] 0.013 | vorinostat -0.136 | silmitasertib 0.007 | [2] -0.015 | entospletinib -0.012

DCP1B (UniProt Q8IZD4)
inactive: [1] 0.011 | vorinostat -0.301 | silmitasertib 0.105 | [2] 0.096 | entospletinib -0.15

DAP (UniProt P51397)
inactive: [1] 0.009 | vorinostat 0.13 | silmitasertib -0.088 | [2] 0.028 | entospletinib -0.002

DENR (UniProt O43583)
inactive: [1] -0.005 | vorinostat 0.085 | silmitasertib -0.039 | [2] -0.009 | entospletinib -0.007

DBNL isoform 3 (UniProt Q9UJU6)
inactive: [1] 0.012 | vorinostat 0.023 | silmitasertib -0.009 | [2] 0.061 | entospletinib -0.023

DCAF7 (UniProt P61962)
inactive: [1] -0.003 | vorinostat -0.143 | silmitasertib 0.088 | [2] -0.019 | entospletinib -0.01

DARS (UniProt P14868)
active: vorinostat -0.327
inactive: [1] 0.003 | silmitasertib 0.056 | [2] 0.019 | entospletinib 0.035

DCTN1 isoform 4 (UniProt Q14203)
inactive: [1] 0.144 | vorinostat -0.143 | silmitasertib -0.027 | [2] 0.011 | entospletinib -0.085

DAXX (UniProt Q9UER7)
inactive: [1] 0.069 | vorinostat -0.049 | silmitasertib -0.005 | [2] 0.039 | entospletinib -0.008

DDX42 (UniProt Q86XP3)
inactive: [1] -0.007 | vorinostat 0.001 | silmitasertib 0.011 | [2] 0.028 | entospletinib 0.032

DDA1 (UniProt Q9BW61)
active: vorinostat -0.289
inactive: [1] -0.024 | silmitasertib -0.006 | [2] 0.05 | entospletinib 0.054

DERL2 (UniProt Q9GZP9)
inactive: [1] -0.059 | vorinostat 0.156 | silmitasertib 0.007 | [2] 0.052 | entospletinib -0.01

DECR1 (UniProt Q16698)
inactive: [1] -0.016 | vorinostat 0.128 | silmitasertib 0 | [2] -0.017 | entospletinib 0.005

CYSTM1 (UniProt Q9H1C7)
inactive: [1] -0.317 | vorinostat 0.093 | silmitasertib -0.055 | [2] -0.135 | entospletinib -0.082
